# Assay results: patent US8426447B2, “Spiro-tricyclic ring compounds as beta-secretase modulators and methods of use” (Amgen Inc., priority 2008, dated 2013)
# Protein sequences, listed by entry. Tags and fused reporters are not part of them. Residues count along the entry.
# UniProt P56817, 46-501 limits assumed: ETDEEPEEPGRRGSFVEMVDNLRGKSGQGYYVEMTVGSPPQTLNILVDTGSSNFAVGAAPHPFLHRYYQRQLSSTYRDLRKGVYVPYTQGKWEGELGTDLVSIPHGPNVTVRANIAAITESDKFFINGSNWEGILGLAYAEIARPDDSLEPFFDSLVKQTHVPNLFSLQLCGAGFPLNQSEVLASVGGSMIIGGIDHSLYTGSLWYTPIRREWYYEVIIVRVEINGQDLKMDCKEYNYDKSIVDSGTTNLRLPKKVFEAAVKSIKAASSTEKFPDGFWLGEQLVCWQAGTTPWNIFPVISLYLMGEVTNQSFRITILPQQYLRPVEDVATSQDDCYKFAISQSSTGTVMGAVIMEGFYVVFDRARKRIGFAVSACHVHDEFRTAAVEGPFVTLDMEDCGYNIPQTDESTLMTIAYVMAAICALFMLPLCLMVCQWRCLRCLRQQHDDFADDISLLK
# Assays:
# BACE1 [1] = target: T1, BACE1 (Homo sapiens, UniProt P56817); assay: In Vitro BACE Cell-based Assay (HEK cell assay): Aβ40 in conditioned medium of cells stably expressing Amyloid Precursor Protein, sandwich ELISA; conditions: read-out: HEK cell assay
# BACE1 [2] = target: T1, BACE1; assay: In Vitro Enzymatic BACE FRET (Fluorescence Resonance Energy Transfer) Assay; format: biochemical; conditions: read-out: BACE1 FRET assay
structure (smiles),measurement,setting,value
Cc1ccc(-c2cc3c(cn2)Oc2ccc(-c4cccnc4F)cc2[C@@]32COC(N)=N2)cn1,IC50,BACE1 [1],< 100 nM
same,IC50,BACE1 [2],< 100 nM

# The match of structure and compound is tentative.
